Our source for the IC50 values is ChEMBL document CHEMBL1149526, “Synthesis and SAR of selective benzothiophene, benzofuran, and indole-based peroxisome proliferator-activated receptor delta agonists” (Bioorg Med Chem Lett, 2007).

Bounds are passed on as bounds.

What is called IC50 is the concentration at which inhibition is half-maximal.

The test deals with T1, Peroxisome proliferator-activated receptor gamma (Homo sapiens, UniProt P37231).
T1 sequence (P37231 whole entry): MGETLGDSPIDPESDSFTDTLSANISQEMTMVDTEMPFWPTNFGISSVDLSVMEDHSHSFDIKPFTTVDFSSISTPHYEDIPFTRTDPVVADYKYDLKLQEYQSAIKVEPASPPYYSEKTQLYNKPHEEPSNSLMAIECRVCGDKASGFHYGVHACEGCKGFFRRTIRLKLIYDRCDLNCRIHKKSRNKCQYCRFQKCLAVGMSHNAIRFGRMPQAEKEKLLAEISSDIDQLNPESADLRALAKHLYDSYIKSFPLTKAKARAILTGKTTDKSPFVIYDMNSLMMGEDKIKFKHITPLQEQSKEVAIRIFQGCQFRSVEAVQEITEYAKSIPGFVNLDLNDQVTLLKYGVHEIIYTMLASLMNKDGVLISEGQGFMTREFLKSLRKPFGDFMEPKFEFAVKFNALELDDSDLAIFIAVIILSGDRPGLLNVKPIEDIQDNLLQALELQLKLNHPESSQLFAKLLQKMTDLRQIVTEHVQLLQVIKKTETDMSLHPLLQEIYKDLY
As to `O=C(O)Cn1ccc2cc(OCc3ccccc3COc3ccc(C(F)(F)F)cc3)ccc21`, the IC50 is > 10 µM.

Turning to `O=C(O)Cn1ccc2cc(OCc3cccc(COc4ccc(C(F)(F)F)cc4)c3)ccc21`, the IC50 is > 10 µM.

Turning to `Cc1nc(C(F)(F)F)sc1CSc1ccc2c(ccn2CC(=O)O)c1`, the IC50 was > 10 µM. For `Cc1nc(-c2ccc(C(F)(F)F)cc2)sc1COc1ccc2c(CC(=O)O)csc2c1`, the IC50 was > 10 µM.

`O=C(O)Cc1csc2cc(OCc3cc(-c4ccc(Cl)cc4)on3)ccc12`: the IC50 is > 10 µM. Take `O=C(O)Cc1coc2cc(OCc3cc(-c4ccc(C(F)(F)F)cc4)on3)ccc12`: the IC50 is > 10 µM. For `Cc1nc(-c2ccc(C(F)(F)F)cc2)sc1COc1cc(Cl)c2c(CC(=O)O)csc2c1`, the IC50 was > 10 µM. In the case of `Cc1cc(OCc2cc(-c3ccc(C(F)(F)F)cc3)on2)cc2scc(CC(=O)O)c12`, the IC50 was > 10 µM. The figure for `O=C(O)Cc1csc2cc(OCc3ccccc3COc3ccc(C(F)(F)F)cc3)ccc12` is > 10 µM; for `O=C(O)Cc1coc2cc(OCc3ccc(COc4ccc(C(F)(F)F)cc4)cc3)ccc12` it is > 10 µM. As to `Cc1nc(C(F)(F)F)sc1COc1ccc2c(ccn2CC(=O)O)c1`, the IC50 was > 10 µM. Turning to `O=C(O)Cc1coc2cc(OCc3cc(-c4ccc(Cl)cc4)on3)ccc12`, the IC50 is > 10 µM.

With `O=C(O)Cn1ccc2cc(OCc3ccc(Oc4ccc(C(F)(F)F)cc4)cc3)ccc21`, the IC50 was > 10 µM.

Regarding `O=C(O)Cc1coc2cc(OCc3ccccc3COc3ccc(C(F)(F)F)cc3)ccc12`, the IC50 is > 10 µM. Consider `O=C(O)Cn1ccc2cc(OCc3cc(-c4ccc(C(F)(F)F)cc4)on3)ccc21`, for which the concentration for half-maximal inhibition (IC50) was > 10 µM.
